PubChem BioAssay AID1259304 – Sanger Institute, 2017
Aim: 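Kinase siRNAs that act in synergy with BYL719, cetuximab or trametinib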 (secondary deconvolution rescreen of primary hits). Cell system: HT115 human colorectal cancer cells. Reagents: single siRNA against human genes. Treatment: anchor drugs BYL719 at 1 µM, cetuximab at 5 µg/ml or trametinib at 10 nM, each set against DMSO vehicle. Read-out: 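Viability compared with non-targeting control wells, mean of replicates, and a synergy score comparing the drug-plus-siRNA effect with each effect alone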. Direction: synergy score with BYL719: higher = stronger synthetic lethal interaction with BYL719; synergy score with cetuximab: higher = stronger synthetic lethal interaction with cetuximab; synergy score with trametinib: higher = stronger synthetic lethal interaction with trametinib; viability, siRNA with trametinib and viability, siRNA with DMSO vehicle: higher = more cells surviving. Call rule: 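a synergy score over 0.10 with at least one of the three anchor drugs makes an active call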. Meaning of the calls: active = synergy with at least one anchor drug; inactive = no synergy with any anchor drug.
Shown is an unselected part of 160 deposited reagents. 88 of all reagents (55%) were called active. 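Four siRNAs per gene, each called on its own in one cell line; calls are not confirmed gene-level hits.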 Reagents against one gene are numbered here. Viability is capped at 1. No sequences are given here. The record does not give: the amount of reagent, the time to read-out.

| gene | siRNA no. | synergy score with BYL719 | synergy score with cetuximab | synergy score with trametinib | viability, siRNA with trametinib (fraction of control) | viability, siRNA with DMSO vehicle (fraction of control) | activity call |
| --- | --- | --- | --- | --- | --- | --- | --- |
| CRIM1 | 1 | -0.0937 | 0.00304 | 0.154 | 0.557 | 0.73 | active |
| CRIM1 | 2 | -0.042 | -0.0172 | 0.106 | 0.701 | 0.829 | active |
| CRIM1 | 3 | -0.0212 | -0.00664 | 0.13 | 0.745 | 0.898 | active |
| CRIM1 | 4 | 0.101 | 0.137 | 0.234 | 0.475 | 0.728 | active |
| SYNCRIP | 1 | -0.00759 | 0.0585 | 0.132 | 0.443 | 0.591 | active |
| SYNCRIP | 2 | -0.0278 | 0.00527 | 0.185 | 0.676 | 0.884 | active |
| SYNCRIP | 3 | 0.00969 | 0.0716 | 0.0941 | 0.407 | 0.514 | inactive |
| SYNCRIP | 4 | -0.0634 | -0.0148 | -0.0131 | 0.711 | 0.716 | inactive |
| MAPK4 | 1 | -0.0359 | -0.0747 | 0.00483 | 0.902 | 0.931 | inactive |
| MAPK4 | 2 | -0.115 | -0.0701 | -0.00459 | 0.502 | 0.51 | inactive |
| MAPK4 | 3 | 0.0888 | -0.0344 | 0.133 | 0.745 | 0.901 | active |
| MAPK4 | 4 | 0.0236 | 0.122 | 0.118 | 0.296 | 0.425 | active |
| GUCY2D | 1 | -0.0839 | 0.0273 | 0.258 | 0.586 | 0.865 | active |
| GUCY2D | 2 | 0.119 | 0.165 | 0.261 | 0.397 | 0.674 | active |
| GUCY2D | 3 | 0.0454 | 0.0331 | 0.339 | 0.479 | 0.839 | active |
| GUCY2D | 4 | -0.106 | -0.0539 | 0.124 | 0.817 | 0.966 | active |
| MAP3K8 | 1 | 0.03 | 0.0677 | 0.231 | 0.743 | 0.999 | active |
| MAP3K8 | 2 | 0.00968 | 0.0506 | 0.0593 | 0.619 | 0.696 | inactive |
| MAP3K8 | 3 | -0.0617 | 0.0284 | 0.0167 | 0.693 | 0.728 | inactive |
| MAP3K8 | 4 | -0.0518 | -0.0137 | 0.199 | 0.512 | 0.73 | active |

Only “synergy score with cetuximab”, for 2 of the entries above:
SYNCRIP #4	-0.0148
MAPK4 #1	-0.0747
